Source: the supplement of paper PMC10849652
The other results are listed elsewhere or left out.

Protein sequences, listed by entry. Tags and fused reporters are not part of them. Lines headed by an entry give the natural chain unless they say otherwise; changes in a name come on top.
UniProt Q6UXH1: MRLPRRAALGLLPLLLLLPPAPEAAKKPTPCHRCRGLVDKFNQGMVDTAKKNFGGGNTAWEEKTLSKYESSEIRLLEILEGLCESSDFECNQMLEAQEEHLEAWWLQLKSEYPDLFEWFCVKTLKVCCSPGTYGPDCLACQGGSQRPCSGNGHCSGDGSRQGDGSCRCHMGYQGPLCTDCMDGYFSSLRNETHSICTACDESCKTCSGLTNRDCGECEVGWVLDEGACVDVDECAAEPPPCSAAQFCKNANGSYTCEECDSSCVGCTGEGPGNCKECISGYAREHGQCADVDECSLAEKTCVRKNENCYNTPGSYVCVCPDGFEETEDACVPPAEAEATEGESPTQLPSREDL
UniProt Q13616, whole entry, looked up: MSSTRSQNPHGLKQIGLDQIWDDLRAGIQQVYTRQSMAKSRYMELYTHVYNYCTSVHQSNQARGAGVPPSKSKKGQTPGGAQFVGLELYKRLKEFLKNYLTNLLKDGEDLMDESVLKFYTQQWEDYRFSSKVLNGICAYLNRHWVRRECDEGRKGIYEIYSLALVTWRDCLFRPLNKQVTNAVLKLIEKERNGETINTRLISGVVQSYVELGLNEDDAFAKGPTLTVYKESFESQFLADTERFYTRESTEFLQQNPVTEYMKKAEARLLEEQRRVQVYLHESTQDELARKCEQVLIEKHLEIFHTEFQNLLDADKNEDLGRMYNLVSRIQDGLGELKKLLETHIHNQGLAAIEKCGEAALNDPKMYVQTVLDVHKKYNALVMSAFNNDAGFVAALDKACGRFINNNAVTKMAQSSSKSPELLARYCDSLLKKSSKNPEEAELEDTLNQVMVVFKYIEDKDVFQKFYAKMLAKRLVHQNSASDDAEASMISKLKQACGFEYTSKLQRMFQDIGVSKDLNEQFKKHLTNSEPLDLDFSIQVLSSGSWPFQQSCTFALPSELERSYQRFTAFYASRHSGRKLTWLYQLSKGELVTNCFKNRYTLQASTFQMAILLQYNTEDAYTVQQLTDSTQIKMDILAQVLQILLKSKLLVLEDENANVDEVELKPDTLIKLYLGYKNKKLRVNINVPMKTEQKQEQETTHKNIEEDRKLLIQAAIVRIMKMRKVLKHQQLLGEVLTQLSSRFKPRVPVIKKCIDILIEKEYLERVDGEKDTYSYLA
UniProt P35222, whole entry, looked up: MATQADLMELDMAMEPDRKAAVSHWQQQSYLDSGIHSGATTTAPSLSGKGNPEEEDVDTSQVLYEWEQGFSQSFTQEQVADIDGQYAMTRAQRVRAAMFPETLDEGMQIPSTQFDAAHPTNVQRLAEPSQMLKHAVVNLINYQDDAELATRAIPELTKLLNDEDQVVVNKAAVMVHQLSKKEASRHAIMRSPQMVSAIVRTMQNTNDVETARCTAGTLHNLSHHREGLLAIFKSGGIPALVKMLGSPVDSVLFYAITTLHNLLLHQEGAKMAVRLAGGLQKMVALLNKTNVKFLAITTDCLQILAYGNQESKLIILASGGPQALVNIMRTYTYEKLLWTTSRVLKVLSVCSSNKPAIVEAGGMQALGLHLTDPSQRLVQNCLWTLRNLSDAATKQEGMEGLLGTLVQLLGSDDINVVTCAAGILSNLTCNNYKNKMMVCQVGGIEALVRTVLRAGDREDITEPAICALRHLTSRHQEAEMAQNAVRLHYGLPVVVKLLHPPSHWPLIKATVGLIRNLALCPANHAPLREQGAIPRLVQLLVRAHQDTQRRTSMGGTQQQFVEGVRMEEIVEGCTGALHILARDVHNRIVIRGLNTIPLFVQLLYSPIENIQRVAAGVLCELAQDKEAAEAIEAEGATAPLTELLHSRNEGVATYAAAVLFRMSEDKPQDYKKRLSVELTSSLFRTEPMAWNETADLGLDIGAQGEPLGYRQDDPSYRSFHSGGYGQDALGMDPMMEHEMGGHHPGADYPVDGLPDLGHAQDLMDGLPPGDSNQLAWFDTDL
UniProt Q05048: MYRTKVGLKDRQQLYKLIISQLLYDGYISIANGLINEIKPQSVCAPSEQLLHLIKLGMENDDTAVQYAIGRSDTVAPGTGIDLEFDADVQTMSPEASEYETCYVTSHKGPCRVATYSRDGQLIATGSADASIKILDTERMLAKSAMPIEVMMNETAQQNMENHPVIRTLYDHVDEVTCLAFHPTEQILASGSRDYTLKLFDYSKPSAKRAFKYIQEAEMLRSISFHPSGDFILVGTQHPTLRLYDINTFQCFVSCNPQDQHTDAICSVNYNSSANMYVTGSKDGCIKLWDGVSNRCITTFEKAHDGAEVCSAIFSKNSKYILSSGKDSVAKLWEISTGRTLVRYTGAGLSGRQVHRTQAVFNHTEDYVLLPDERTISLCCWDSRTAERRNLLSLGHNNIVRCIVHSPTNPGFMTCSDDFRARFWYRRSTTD
UniProt Q2VPK5: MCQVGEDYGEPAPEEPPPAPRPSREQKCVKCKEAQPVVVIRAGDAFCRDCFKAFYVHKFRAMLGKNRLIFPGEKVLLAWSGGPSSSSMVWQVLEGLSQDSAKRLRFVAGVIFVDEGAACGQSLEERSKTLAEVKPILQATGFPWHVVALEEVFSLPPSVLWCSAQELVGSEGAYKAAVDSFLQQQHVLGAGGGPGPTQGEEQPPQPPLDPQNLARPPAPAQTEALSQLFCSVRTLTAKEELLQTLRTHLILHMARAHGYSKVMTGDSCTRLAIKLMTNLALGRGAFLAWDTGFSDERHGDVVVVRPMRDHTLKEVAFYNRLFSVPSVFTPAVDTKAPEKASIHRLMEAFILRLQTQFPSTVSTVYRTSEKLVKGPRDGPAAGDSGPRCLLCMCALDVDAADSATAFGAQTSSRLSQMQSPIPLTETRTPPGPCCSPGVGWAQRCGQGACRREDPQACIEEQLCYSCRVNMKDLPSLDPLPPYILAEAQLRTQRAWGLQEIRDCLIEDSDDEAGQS
UniProt Q96C57: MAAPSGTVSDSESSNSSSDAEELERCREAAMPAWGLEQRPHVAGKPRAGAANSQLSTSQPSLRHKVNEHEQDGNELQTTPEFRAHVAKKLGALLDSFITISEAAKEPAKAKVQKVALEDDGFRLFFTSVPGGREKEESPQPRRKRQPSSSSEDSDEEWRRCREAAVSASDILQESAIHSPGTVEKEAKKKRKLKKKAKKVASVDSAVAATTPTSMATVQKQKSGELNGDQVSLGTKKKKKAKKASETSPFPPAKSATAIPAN
UniProt Q9NRF8: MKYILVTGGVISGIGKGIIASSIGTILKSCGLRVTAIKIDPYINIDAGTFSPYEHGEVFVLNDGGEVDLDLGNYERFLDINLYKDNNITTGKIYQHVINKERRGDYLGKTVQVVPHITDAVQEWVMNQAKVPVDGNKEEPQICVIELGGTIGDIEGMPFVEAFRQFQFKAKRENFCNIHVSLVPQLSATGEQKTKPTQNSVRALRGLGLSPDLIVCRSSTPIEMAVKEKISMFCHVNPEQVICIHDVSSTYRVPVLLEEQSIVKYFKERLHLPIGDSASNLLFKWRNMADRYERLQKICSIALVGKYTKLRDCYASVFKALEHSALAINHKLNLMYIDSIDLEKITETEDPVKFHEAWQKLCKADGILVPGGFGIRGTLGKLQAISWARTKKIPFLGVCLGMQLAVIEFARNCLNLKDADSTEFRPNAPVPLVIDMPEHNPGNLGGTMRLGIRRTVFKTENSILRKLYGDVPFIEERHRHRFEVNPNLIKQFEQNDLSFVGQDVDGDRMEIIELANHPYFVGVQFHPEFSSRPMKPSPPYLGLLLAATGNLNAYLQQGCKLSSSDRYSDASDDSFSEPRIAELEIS
UniProt P08574: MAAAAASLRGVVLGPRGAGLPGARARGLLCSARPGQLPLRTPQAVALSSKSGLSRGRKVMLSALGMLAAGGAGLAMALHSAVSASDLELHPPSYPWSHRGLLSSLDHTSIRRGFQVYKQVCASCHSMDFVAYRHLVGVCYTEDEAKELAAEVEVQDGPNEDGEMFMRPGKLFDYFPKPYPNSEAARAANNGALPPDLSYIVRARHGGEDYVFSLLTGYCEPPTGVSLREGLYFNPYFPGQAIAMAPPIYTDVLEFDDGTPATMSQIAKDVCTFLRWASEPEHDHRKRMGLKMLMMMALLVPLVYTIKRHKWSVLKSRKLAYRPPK
UniProt Q5TZA2: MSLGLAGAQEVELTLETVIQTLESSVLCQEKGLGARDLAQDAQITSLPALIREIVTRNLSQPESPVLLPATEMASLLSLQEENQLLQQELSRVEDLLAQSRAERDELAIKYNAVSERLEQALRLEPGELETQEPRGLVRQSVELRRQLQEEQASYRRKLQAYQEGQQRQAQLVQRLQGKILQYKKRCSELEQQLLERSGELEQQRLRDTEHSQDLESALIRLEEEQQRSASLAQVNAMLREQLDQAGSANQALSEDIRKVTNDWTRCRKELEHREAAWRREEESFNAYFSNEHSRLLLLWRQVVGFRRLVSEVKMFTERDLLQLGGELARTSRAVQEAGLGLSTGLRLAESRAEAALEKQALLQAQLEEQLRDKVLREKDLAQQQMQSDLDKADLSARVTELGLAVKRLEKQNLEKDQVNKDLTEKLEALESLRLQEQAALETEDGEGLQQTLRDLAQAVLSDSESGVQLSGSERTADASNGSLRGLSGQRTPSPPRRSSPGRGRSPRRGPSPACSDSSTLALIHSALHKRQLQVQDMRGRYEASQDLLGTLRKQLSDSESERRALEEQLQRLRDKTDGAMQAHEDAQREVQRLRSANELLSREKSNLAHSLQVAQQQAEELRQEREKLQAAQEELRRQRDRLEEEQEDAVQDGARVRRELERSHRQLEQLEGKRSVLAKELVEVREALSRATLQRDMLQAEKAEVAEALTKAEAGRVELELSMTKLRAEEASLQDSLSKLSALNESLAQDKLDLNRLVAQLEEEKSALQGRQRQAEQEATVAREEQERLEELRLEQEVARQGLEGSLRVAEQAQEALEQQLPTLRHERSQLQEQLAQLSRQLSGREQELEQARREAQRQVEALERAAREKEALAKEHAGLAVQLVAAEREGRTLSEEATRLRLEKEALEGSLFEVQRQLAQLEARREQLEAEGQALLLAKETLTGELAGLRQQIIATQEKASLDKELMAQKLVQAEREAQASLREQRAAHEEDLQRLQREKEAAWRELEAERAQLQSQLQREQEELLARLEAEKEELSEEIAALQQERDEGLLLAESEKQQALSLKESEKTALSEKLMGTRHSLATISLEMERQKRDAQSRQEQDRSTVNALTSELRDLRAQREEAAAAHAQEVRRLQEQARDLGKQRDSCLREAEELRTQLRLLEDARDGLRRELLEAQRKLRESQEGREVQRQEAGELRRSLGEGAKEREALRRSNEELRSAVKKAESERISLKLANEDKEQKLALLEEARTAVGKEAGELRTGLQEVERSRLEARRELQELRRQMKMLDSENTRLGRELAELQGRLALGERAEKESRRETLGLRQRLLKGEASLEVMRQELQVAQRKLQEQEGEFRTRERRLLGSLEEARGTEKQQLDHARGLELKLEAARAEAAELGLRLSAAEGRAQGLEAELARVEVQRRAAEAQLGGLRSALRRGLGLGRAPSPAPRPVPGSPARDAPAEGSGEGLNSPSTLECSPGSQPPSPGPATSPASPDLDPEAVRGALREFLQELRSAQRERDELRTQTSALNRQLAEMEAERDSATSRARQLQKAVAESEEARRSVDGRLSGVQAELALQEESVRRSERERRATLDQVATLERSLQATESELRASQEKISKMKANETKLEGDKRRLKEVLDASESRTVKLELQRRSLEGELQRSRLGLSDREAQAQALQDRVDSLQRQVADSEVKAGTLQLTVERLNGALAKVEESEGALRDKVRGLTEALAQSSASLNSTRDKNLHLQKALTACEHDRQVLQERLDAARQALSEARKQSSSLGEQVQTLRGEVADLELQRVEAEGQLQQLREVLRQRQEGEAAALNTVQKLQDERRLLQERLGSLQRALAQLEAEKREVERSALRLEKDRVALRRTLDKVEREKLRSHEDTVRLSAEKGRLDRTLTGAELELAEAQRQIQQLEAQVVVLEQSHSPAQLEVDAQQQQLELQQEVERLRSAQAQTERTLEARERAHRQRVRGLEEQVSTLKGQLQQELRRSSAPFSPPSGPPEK
UniProt P16220: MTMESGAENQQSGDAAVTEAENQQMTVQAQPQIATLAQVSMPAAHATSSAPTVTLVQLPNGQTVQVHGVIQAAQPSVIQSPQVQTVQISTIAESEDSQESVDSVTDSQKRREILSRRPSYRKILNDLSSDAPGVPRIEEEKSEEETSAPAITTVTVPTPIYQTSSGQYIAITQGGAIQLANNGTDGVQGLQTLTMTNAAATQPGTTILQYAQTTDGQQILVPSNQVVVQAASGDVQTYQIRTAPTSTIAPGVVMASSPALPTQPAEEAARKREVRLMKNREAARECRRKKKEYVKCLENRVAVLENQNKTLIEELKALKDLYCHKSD
UniProt P01034: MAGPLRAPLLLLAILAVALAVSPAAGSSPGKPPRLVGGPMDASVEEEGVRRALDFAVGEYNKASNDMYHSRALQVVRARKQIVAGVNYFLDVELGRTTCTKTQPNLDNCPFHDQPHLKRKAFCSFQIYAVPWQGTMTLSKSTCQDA

What was measured:
Test in all cases: log2 fold change, soluble protein after heating vs DMSO (PISA); higher = thermal stabilisation; K562 lysate, 10 uM; active = over 0.2 and 3.5 SD of the protein, either way, in both replicates (recomputed)
vemurafenib = compound: CCCS(=O)(=O)Nc1ccc(F)c(C(=O)c2c[nH]c3ncc(-c4ccc(Cl)cc4)cc23)c1F [vemurafenib]
Summary of the method: (§1)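 Log-two fold change in thermal stability relative to solvent controls is reported from duplicates. For each sample, crude K562 extract from dounce-homogenised pellets in PBS pH 7.4 with 1 mM MgCl2, at 1 mg/mL protein, was treated with 10 μM compound for 30 min. Aliquots heated for 3 min across 48°C-58°C were pooled, brought to 0.5% NP-40 at 4°C and cleared at 21,000xg for 90 min. The supernatant was quantified by TMTpro 16plex LC-MS/MS with channel sums equalised.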

[1] = compound: CCCS(=O)(=O)Nc1ccc(F)c(C(=O)c2c[nH]c3ncc(Cl)cc23)c1F
Summary of the method: as §1

barasertib = compound: CCN(CCCOc1ccc2c(Nc3cc(CC(=O)Nc4cccc(F)c4)[nH]n3)ncnc2c1)CCOP(=O)(O)O [barasertib]
Summary of the method: as §1

[2] = compound: CC[C@@H]1C(=O)N(C)c2cnc(Nc3ccc(C(=O)NC4CCN(C)CC4)cc3OC)nc2N1C1CCCC1
Summary of the method: as §1

volasertib = compound: CC[C@@H]1C(=O)N(C)c2cnc(Nc3ccc(C(=O)N[C@H]4CC[C@H](N5CCN(CC6CC6)CC5)CC4)cc3OC)nc2N1C(C)C [volasertib]
Summary of the method: as §1

[3] = compound: CCn1c(C(=O)N(C2CC2)C2CC2)cc2c3c(ncn3C)c(Nc3cc(C)n(C)n3)nc21
Summary of the method: as §1

[4] = compound: CCn1cc(-c2ccnc3[nH]c(-c4cccc(CN(C)C)c4)cc23)c(-c2ccc(NC(=O)N(C)C)cc2)n1
Summary of the method: as §1

[5] = compound: CN1CCC(CNc2ccc3ncc(-c4cccc(OC(F)(F)F)c4)n3n2)CC1
Summary of the method: as §1

saracatinib = compound: CN1CCN(CCOc2cc(OC3CCOCC3)c3c(Nc4c(Cl)ccc5c4OCO5)ncnc3c2)CC1 [saracatinib]
Summary of the method: as §1

sotrastaurin = compound: CN1CCN(c2nc(C3=C(c4c[nH]c5ccccc45)C(=O)NC3=O)c3ccccc3n2)CC1 [sotrastaurin]
Summary of the method: as §1

Target	log2 fold change (vemurafenib)	log2 fold change [1]	log2 fold change (barasertib)	log2 fold change [2]	log2 fold change (volasertib)	log2 fold change [3]	log2 fold change [4]	log2 fold change [5]	log2 fold change (saracatinib)	log2 fold change (sotrastaurin)
CRELD2 isoform 5 (UniProt Q6UXH1)	inactive: -0.054	inactive: 0.019	inactive: -0.175	inactive: 0.081	inactive: -0.022	inactive: 0.038	inactive: -0.017	inactive: 0.03	inactive: -0.009	inactive: 0.015
CYB5R3 isoform 3 (UniProt P00387)	inactive: 0.043	inactive: -0.022	inactive: -0.033	inactive: 0.023	inactive: 0.008	inactive: -0.079	inactive: -0.015	inactive: 0.043	inactive: -0.009	inactive: 0.032
CS (UniProt O75390)	inactive: -0.002	inactive: -0.001	inactive: -0.011	inactive: -0.008	inactive: 0.008	inactive: -0.005	inactive: 0.023	inactive: -0.033	inactive: -0.036	inactive: -0.013
CUL1 (UniProt Q13616)	inactive: -0.008	inactive: 0.001	inactive: -0.011	inactive: 0.034	inactive: 0.029	inactive: 0.004	inactive: -0.013	inactive: 0.029	inactive: -0.023	inactive: -0.029
CYB561 (UniProt P49447)	inactive: -0.009	inactive: -0.004	inactive: -0.068	inactive: 0.083	inactive: 0.067	inactive: -0.197	inactive: -0.361	inactive: 0.121	inactive: -0.035	inactive: -0.045
CTNNB1 (UniProt P35222)	inactive: -0.253	inactive: -0.048	inactive: 0.054	inactive: 0.142	inactive: 0.016	inactive: -0.016	inactive: -0.009	inactive: 0.093	inactive: -0.026	inactive: 0.017
CUTA isoform 2 (UniProt O60888)	inactive: 0.03	inactive: 0.029	inactive: 0.04	inactive: 0.077	inactive: 0.024	inactive: -0.008	inactive: -0.224	inactive: 0.186	inactive: 0.033	inactive: -0.066
CUTC (UniProt Q9NTM9)	inactive: -0.025	inactive: 0.013	inactive: 0.009	inactive: -0.031	inactive: 0.024	inactive: -0.043	inactive: -0.062	inactive: 0.078	inactive: -0.011	inactive: -0.017
CSTF1 (UniProt Q05048)	inactive: 0.006	inactive: 0.005	inactive: -0.021	inactive: -0.037	inactive: 0.029	inactive: 0.043	inactive: 0.003	inactive: 0.095	inactive: -0.015	inactive: -0.057
CTU2 (UniProt Q2VPK5)	inactive: -0.056	inactive: -0.017	inactive: -0.003	inactive: -0.03	inactive: 0.007	inactive: 0.058	inactive: -0.048	inactive: 0.027	inactive: 0.007	inactive: 0.044
CRYAB (UniProt P02511)	inactive: -0.054	inactive: 0.105	inactive: 0.017	inactive: 0.247	inactive: -0.187	inactive: -0.255	inactive: -0.117	inactive: 0.046	inactive: -0.07	inactive: 0.005
CYP20A1 (UniProt Q6UW02)	inactive: -0.005	inactive: 0	inactive: 0.047	inactive: -0.075	inactive: -0.04	inactive: -0.018	inactive: -0.04	inactive: 0.006	inactive: 0.012	inactive: -0.004
CUSTOS (UniProt Q96C57)	inactive: -0.051	inactive: 0.018	inactive: -0.056	inactive: 0.042	inactive: 0.016	inactive: -0.004	inactive: -0.01	inactive: 0.052	inactive: 0.01	inactive: 0.022
CTNND1 isoform 3 (UniProt O60716)	inactive: 0.06	inactive: 0.037	inactive: 0.036	inactive: -0.034	inactive: -0.098	inactive: 0.073	inactive: -0.032	inactive: 0.004	inactive: -0.012	inactive: 0.024
CWC22 (UniProt Q9HCG8)	inactive: 0.002	inactive: 0.045	inactive: 0.028	inactive: -0.209	inactive: -0.033	inactive: 0.017	active: 0.393	active: -0.273	inactive: -0.052	inactive: -0.013
CYCS (UniProt P99999)	inactive: -0.011	inactive: -0.001	inactive: -0.01	inactive: 0.061	inactive: 0.041	inactive: 0.018	inactive: -0.025	inactive: 0.052	inactive: 0.008	inactive: -0.017
CSNK2A1 (UniProt P68400)	inactive: -0.124	inactive: 0.017	inactive: -0.025	inactive: -0.057	inactive: -0.039	inactive: 0.006	inactive: -0.009	inactive: 0.165	inactive: -0.028	inactive: 0.019
CTPS2 (UniProt Q9NRF8)	inactive: 0.002	inactive: 0.01	inactive: 0.015	inactive: -0.028	inactive: -0.009	inactive: 0.011	inactive: -0.041	inactive: 0.058	inactive: 0.012	inactive: -0.044
CXXC1 isoform 2 (UniProt Q9P0U4)	inactive: -0.029	inactive: -0.117	inactive: -0.02	inactive: -0.256	inactive: -0.027	inactive: 0.031	inactive: -0.072	inactive: 0.041	inactive: -0.066	inactive: -0.04
CYC1 (UniProt P08574)	inactive: -0.086	inactive: -0.024	inactive: -0.018	inactive: -0.077	inactive: 0.005	inactive: 0.01	inactive: 0.132	inactive: 0	inactive: 0.003	inactive: 0
CTNNA1 (UniProt P35221)	inactive: 0.004	inactive: 0.006	inactive: 0.01	inactive: 0.004	inactive: 0.021	inactive: -0.034	inactive: -0.024	inactive: 0.039	inactive: 0.002	inactive: -0.009
CROCC (UniProt Q5TZA2)	inactive: -0.038	inactive: -0.077	inactive: 0.079	inactive: -0.135	inactive: -0.085	inactive: 0.152	inactive: -0.157	inactive: 0.113	inactive: -0.021	inactive: -0.058
CREB1 (UniProt P16220)	inactive: -0.045	inactive: -0.017	inactive: -0.048	inactive: -0.007	inactive: -0.021	inactive: 0.048	inactive: 0.045	inactive: 0.006	inactive: 0.112	inactive: 0.025
CST3 (UniProt P01034)	inactive: -0.076	inactive: -0.002	inactive: 0.053	inactive: -0.086	inactive: -0.004	inactive: 0.044	inactive: -0.074	inactive: 0.073	inactive: 0.031	inactive: 0.028
CYB5R1 (UniProt Q9UHQ9)	inactive: -0.034	inactive: 0.031	inactive: 0.066	inactive: -0.044	inactive: -0.067	inactive: -0.031	inactive: 0.072	inactive: 0.053	inactive: 0.016	inactive: 0.007
CTTN isoform 2 (UniProt Q14247)	inactive: -0.023	inactive: -0.006	inactive: -0.031	inactive: 0.028	inactive: 0.034	inactive: -0.025	inactive: 0.007	inactive: 0.034	inactive: -0.008	inactive: -0.035

Whole records from above. Values in the order: log2 fold change (vemurafenib) | log2 fold change [1] | log2 fold change (barasertib) | log2 fold change [2] | log2 fold change (volasertib) | log2 fold change [3] | log2 fold change [4] | log2 fold change [5] | log2 fold change (saracatinib) | log2 fold change (sotrastaurin)
CSNK2A1 (UniProt P68400) is listed with inactive: -0.124 | inactive: 0.017 | inactive: -0.025 | inactive: -0.057 | inactive: -0.039 | inactive: 0.006 | inactive: -0.009 | inactive: 0.165 | inactive: -0.028 | inactive: 0.019
CTPS2 (UniProt Q9NRF8) is listed with inactive: 0.002 | inactive: 0.01 | inactive: 0.015 | inactive: -0.028 | inactive: -0.009 | inactive: 0.011 | inactive: -0.041 | inactive: 0.058 | inactive: 0.012 | inactive: -0.044
